Source: patent US11691976B2, “Coelenterazine analogues” (PROMEGA CORPORATION, priority 2018, dated 2023)
At least one structure is not confirmed: it was looked up by name or label, or the drawing left a doubt.

The chains behind the UniProt entries cited, without tags or fusion partners. A line that says so, or that is headed by a name, gives the form on record, which may keep a tag or linker. Residues count along the entry.
UniProt Q9GV45, 28-196 with tags or gaps with the stated changes limits assumed: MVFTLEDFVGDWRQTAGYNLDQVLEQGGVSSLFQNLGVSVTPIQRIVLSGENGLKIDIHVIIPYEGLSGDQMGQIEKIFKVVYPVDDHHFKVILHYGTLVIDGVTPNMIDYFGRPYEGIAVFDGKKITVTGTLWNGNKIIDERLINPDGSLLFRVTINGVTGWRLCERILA

Target: NANOLUC® Luciferase (Oplophorus gracilirostris, UniProt Q9GV45, A31E/A60N/A81I/F95D/I117V/K70R/L54V/L99Q/M102K/N193R/P142E/Q151K/Q38R/Q45L/V71I/Y165I)
Assay: Luminescence assay: substrate titration with purified NANOLUC Luciferase (RLU, signal half-life, Km)
Assay type: biochemical
Details: 100 μM substrate; initial light output three minutes after substrate addition; relative to furimazine set to 1.0
Protocol: Each compound to be screened was dissolved in DMSO (5 mM) and then further diluted to 100 μM in NANO-GEO® Luciferase Assay Buffer. A two-fold dilution series was prepared for each substrate by serially diluting 500 μl of the substrate solution with 500 μl of NANO-GLO® Luciferase Assay Buffer. Each diluted substrate titration was then combined in equal volumes with purified NANOLUC® Luciferase diluted into CO2 independent media+10% FBS. Initial light output for each substrate was measured in a GLOMAX®-Multi+ luminometer three minutes after substrate addition and then at five minute intervals as a means to determine signal half-life. Signal half-life was calculated using GraphPad Prism One Phase Decay regression and Km and Vmax were calculated using GraphPad Prism using Michaelis-Menten regression.
The synthesized coelenterazine analogues (compounds of formula (I) and (II)) were evaluated for their suitability as luciferase substrates. NANOLUC® luciferase was employed for the screening because it is a small (19 kDa), stable, and particularly bright enzyme. […] RLU, half-life, and Km values are for furimazine is set to 1.0. […]

Row | Structure (SMILES) | RLU (@100 μM)
1 | O=c1c(Cc2ccc(C(F)(F)F)o2)nc2c(Cc3ccccc3)[nH]c(-c3cccc(O)c3)cn1-2 [JRW-1180, 8-benzyl-6-(3-hydroxyphenyl)-2-((5-(trifluoromethyl)furan-2-yl)methyl)imidazo[1,2-a]pyrazin-3(7H)-one] | 0.42
2 | COCc1cccc(Cc2nc3c(Cc4ccccc4)[nH]c(-c4cccc(N)c4F)cn-3c2=O)c1 [JRW-1609, 6-(3-amino-2-fluorophenyl)-8-benzyl-2-(3-(methoxymethyl)benzyl)imidazo[1,2-a]pyrazin-3(7H)-one] | 0.44
3 | O=c1c(Cc2ccc(F)cc2)nc2c(Cc3ccccc3)[nH]c(-c3cccc(O)c3F)cn1-2 [JRW-1634, 8-benzyl-6-(2-fluoro-3-hydroxyphenyl)-2-(4-fluorobenzyl)imidazo[1,2-a]pyrazin-3(7H)-one] | 1.0
4 | O=c1c(Cc2ccco2)nc2c(Cc3c(F)cccc3F)[nH]c(-c3cccc(O)c3F)cn1-2 [JRW-1759, 8-(2,6-difluorobenzyl)-6-(2-fluoro-3-hydroxyphenyl)-2-(furan-2-ylmethyl)imidazo[1,2-a]pyrazin-3(7H)-one] | 1.0
